Data taken from PubChem BioAssay AID624031, deposited by NCATS (2012).

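A 24-hour survival check of S16 rat Schwann cells, judged by the ATP-driven light signal.
Each compound ran as a dilution series from about 0.00016 to 58 µM.
The number is the fitted AC50 potency for cell killing; a lower value means a more potent cytotoxic effect.
Calls follow curve class, fit quality (r2) and response size; inconclusive compounds get activity scores of 1 to 39, and these rows are all inconclusive.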

Values are in µM.
Every entry below has the call inconclusive.
These entries are mostly ones the record files as inconclusive; other results of the assay are not listed here.
A potency from a partial, single-point or poor curve is only a rough figure.
The first word of each remark tells which way the curve ran; it can be opposite to the aim of the assay.
Activity scores are not listed here.

{"structure": "CN1CCC[C@@H]1CCO[C@](C)(c1ccccc1)c1ccc(Cl)cc1", "fitted potency (µM)": "40.53", "remark": "cytotoxic, single point"}
{"structure": "CO[C@]12C[C@@H](COC(=O)c3cncc(Br)c3)CN(C)[C@@H]1Cc1cn(C)c3cccc2c13", "fitted potency (µM)": "40.53", "remark": "cytotoxic, single point"}
{"structure": "C[C@H](CN1c2ccccc2Sc2cccnc21)N(C)C", "fitted potency (µM)": "16.14", "remark": "cytotoxic, partial curve, poor fit"}
{"structure": "NC(=S)N/N=C/c1cccnc1", "fitted potency (µM)": "40.53", "remark": "cytotoxic, single point"}
{"structure": "CN1C(=O)C[C@H](c2ccccc2)C1=O", "fitted potency (µM)": "12.82", "remark": "cytotoxic, partial curve, poor fit"}
{"structure": "C[C@H](CS)C(=O)N1CCC[C@H]1C(=O)O", "fitted potency (µM)": "0.0144", "remark": "cytotoxic, full curve, poor fit"}
{"structure": "CC1=C(C)C(=O)C(CCCCC#CCCCC#CCO)=C(C)C1=O", "fitted potency (µM)": "36.13", "remark": "cytotoxic, single point"}
{"structure": "C[C@@H]1Cc2ccccc2N1NC(=O)c1ccc(Cl)c(S(N)=O)c1", "stereo": "some centres not stated", "fitted potency (µM)": "1.229", "remark": "cytotoxic, partial curve, poor fit"}
{"structure": "CN(C)CCCN1c2ccccc2Sc2ccccc21", "fitted potency (µM)": "13.79", "remark": "cytotoxic, partial curve"}
{"structure": "COc1ccc(-c2nc3ccc(C4=C(C)CC(=O)NN4)cc3[nH]2)cc1", "fitted potency (µM)": "28.7", "remark": "cytotoxic, partial curve"}
{"structure": "COc1cccc2c1C(=O)c1c(O)c3c(c(O)c1C2=O)C[C@](O)(C(=O)CO)C[C@@H]3O[C@H]1C[C@H](N)[C@@H](O)[C@H](C)O1", "fitted potency (µM)": "0.0072", "remark": "rising, full curve, poor fit"}
{"structure": "CN(C)C(=O)C(CCN1CCC(O)(c2ccc(Cl)cc2)CC1)(c1ccccc1)c1ccccc1", "fitted potency (µM)": "28.7", "remark": "cytotoxic, partial curve"}
{"structure": "CC(C)(C)CC(C)(C)c1ccc(O)c(Cc2ccc(Cl)cc2Cl)c1", "fitted potency (µM)": "36.13", "remark": "cytotoxic, partial curve, poor fit"}
{"structure": "C/C(=C\\c1csc(C)n1)[C@@H]1C[C@@H]2O[C@]2(C)CCC[C@H](C)[C@H](O)[C@@H](C)C(=O)C(C)(C)[C@@H](O)CC(=O)O1", "fitted potency (µM)": "25.57", "remark": "cytotoxic, partial curve"}
{"structure": "O=C(CCCN1CCC(O)(c2cccc(C(F)(F)F)c2)CC1)c1ccc(F)cc1", "fitted potency (µM)": "36.13", "remark": "cytotoxic, single point"}
{"structure": "CN1CCC[C@@H]1Cc1c[nH]c2ccc(CCS(=O)(=O)c3ccccc3)cc12", "fitted potency (µM)": "36.13", "remark": "cytotoxic, single point"}
{"structure": "CN(C)CC[C@@H](c1ccc(Br)cc1)c1ccccn1", "fitted potency (µM)": "36.13", "remark": "cytotoxic, single point"}
{"structure": "C[C@H]1CS(=O)(=O)CCN1/N=C\\c1ccc([N+](=O)[O-])o1", "fitted potency (µM)": "1.379", "remark": "cytotoxic, full curve, poor fit"}
{"structure": "O=C(NCCN1CCOCC1)c1ccc(Cl)cc1", "fitted potency (µM)": "40.53", "remark": "cytotoxic, single point"}
{"structure": "CCCCCCCCCCCCOCCOCCOCCOCCOCCOCCOCCOCCOCCO", "fitted potency (µM)": "32.2", "remark": "cytotoxic, single point"}
{"structure": "CCC(C(=O)O)C1CCC(C)C(C(C)C(O)C(C)C(=O)C(CC)C2OC3(C=CC(O)[C@@]4(CC[C@](C)(C5CC[C@@](O)(CC)C(C)O5)O4)O3)C(C)CC2C)O1", "stereo": "some centres not stated", "fitted potency (µM)": "2.558", "remark": "cytotoxic, full curve, poor fit"}
{"structure": "CC(=O)Oc1ccccc1C(=O)Nc1ncc([N+](=O)[O-])s1", "fitted potency (µM)": "28.7", "remark": "cytotoxic, partial curve"}
{"structure": "F/C(COc1ccc2c(c1)[nH]c1ccccc12)=C1/CN2CCC1CC2", "fitted potency (µM)": "28.7", "remark": "cytotoxic, single point"}

For reference, 3 entries once more:

structure,fitted potency (µM),remark
O=C(NCCN1CCOCC1)c1ccc(Cl)cc1,40.53,"cytotoxic, single point"
CN(C)C(=O)C(CCN1CCC(O)(c2ccc(Cl)cc2)CC1)(c1ccccc1)c1ccccc1,28.7,"cytotoxic, partial curve"
COc1ccc(-c2nc3ccc(C4=C(C)CC(=O)NN4)cc3[nH]2)cc1,28.7,"cytotoxic, partial curve"